Results reported in article PMC7415139.
No constants are given. Whether binding was seen depends on the method and setting. Binding seen in cells or lysates may run through a third protein. Here binding means that the protein was enriched with, or labelled near, the bait; the list need not be complete.

What follows are binders tested against CWC15-3xGFP (Arabidopsis thaliana) (assay: affinity purification with mass spectrometry; GFP-tagged CWC15 precipitated with GFP-Trap magnetic beads from lysate of seedlings 6 dag (150 mM NaCl, 50 mM Tris pH 7.5, 2 mM EDTA, 0.5% Triton X-100), 3 h at 4 °C; LC-MS/MS; compared with precipitates of GFP-tagged IMPα6 and ARF5).

binding	Binder
binds	MAC3B (protein, UniProt O22785 1-525) MNCAISGEVPVEPVVSTKSGLLFERRLIERHISDYGKCPVTGEPLTIDDIVPIKTGEIIKPKTLHTASIPGLLGTFQNEWDGLMLSNFALEQQLHTARQELSHALYQHDSACRVIARLKKERDEARQLLAEVERHIPAAPEAVTANAALSNGKRAAVDEELGPDAKKLCPGISAEIITELTDCNAALSQKRKKRQIPQTLASIDTLERFTQLSSHPLHKTNKPGICSMDILHSKDVIATGGVDATAVLFDRPSGQILSTLTGHSKKVTSVKFVGDSDLVLTASADKTVRIWRNPGDGNYACGYTLNDHSAEVRAVTVHPTNKYFVSASLDGTWCFYDLSSGSCLAQVSDDSKNVDYTAAAFHPDGLILGTGTSQSVVKIWDVKSQANVAKFDGHTGEVTAISFSENGYFLATAAEDGVRLWDLRKLRNFKSFLSADANSVEFDPSGSYLGIAASDIKVYQTASVKAEWNLIKTLPDLSGTGKATCVKFGSDAQYVAVGSMDRNLRIFGLPGDEKANVDDDSAQDS
binds	GFA1/MEE5/CLO (protein, UniProt Q9LNC5 1-987) MESSLYDEFGNYVGPEIESDRDSDDEVEDEDLQDKHLEENGSDGEQGPGGSNGWITTINDVEMENQIVLPEDKKYYPTAEEVYGEDVETLVMDEDEQPLEQPIIKPVRDIRFEVGVKDQATYVSTQFLIGLMSNPALVRNVALVGHLQHGKTVFMDMLVEQTHHMSTFNAKNEKHMKYTDTRVDEQERNISIKAVPMSLVLEDSRSKSYLCNIMDTPGHVNFSDEMTASLRLADGAVLIVDAAEGVMVNTERAIRHAIQDHLPIVVVINKVDRLITELKLPPRDAYYKLRHTIEVINNHISAASTTAGDLPLIDPAAGNVCFASGTAGWSFTLQSFAKMYAKLHGVAMDVDKFASRLWGDVYYHSDTRVFKRSPPVGGGERAFVQFILEPLYKIYSQVIGEHKKSVETTLAELGVTLSNSAYKLNVRPLLRLACSSVFGSASGFTDMLVKHIPSPREAAARKVDHSYTGTKDSPIYESMVECDPSGPLMVNVTKLYPKSDTSVFDVFGRVYSGRLQTGQSVRVLGEGYSPEDEEDMTIKEVTKLWIYQARYRIPVSSAPPGSWVLIEGVDASIMKTATLCNASYDEDVYIFRALQFNTLPVVKTATEPLNPSELPKMVEGLRKISKSYPLAITKVEESGEHTILGTGELYLDSIMKDLRELYSEVEVKVADPVVSFCETVVESSSMKCFAETPNKKNKITMIAEPLDRGLAEDIENGVVSIDWNRKQLGDFFRTKYDWDLLAARSIWAFGPDKQGPNILLDDTLPTEVDRNLMMAVKDSIVQGFQWGAREGPLCDEPIRNVKFKIVDARIAPEPLHRGSGQMIPTARRVAYSAFLMATPRLMEPVYYVEIQTPIDCVTAIYTVLSRRRGHVTSDVPQPGTPAYIVKAFLPVIESFGFETDLRYHTQGQAFCLSVFDHWAIVPGDPLDKAIQLRPLEPAPIQHLAREFMVKTRRRKGMSEDVSGNKFFDEAMMVELAQQTGDLHLQMI
binds	MAC3A (protein, UniProt Q94BR4 1-523) MNCAISGEVPEEPVVSKKSGLLYEKRLIQTHISDYGKCPVTGEPHTLDDIVPIKTGKIVKPKPLHTASIPGLLGTFQTEWDSLMLSNFALEQQLHTARQELSHALYQHDAACRVIARLKKERDESRQLLAEAERQLPAAPEVATSNAALSNGKRGIDDGEQGPNAKKMRLGISAEVITELTDCNAALSQQRKKRQIPKTLASVDALEKFTQLSSHPLHKTNKPGIFSMDILHSKDVIATGGIDTTAVLFDRPSGQILSTLTGHSKKVTSIKFVGDTDLVLTASSDKTVRIWGCSEDGNYTSRHTLKDHSAEVRAVTVHATNKYFVSASLDSTWCFYDLSSGLCLAQVTDASENDVNYTAAAFHPDGLILGTGTAQSIVKIWDVKSQANVAKFGGHNGEITSISFSENGYFLATAALDGVRLWDLRKLKNFRTFDFPDANSVEFDHSGSYLGIAASDIRVFQAASVKAEWNPIKTLPDLSGTGKATSVKFGLDSKYIAVGSMDRNLRIFGLPDDDNTEDSAQDS
binds	CDC5/MAC1 (protein, UniProt P92948 1-844) MRIMIKGGVWKNTEDEILKAAVMKYGKNQWARISSLLVRKSAKQCKARWYEWLDPSIKKTEWTREEDEKLLHLAKLLPTQWRTIAPIVGRTPSQCLERYEKLLDAACTKDENYDAADDPRKLRPGEIDPNPEAKPARPDPVDMDEDEKEMLSEARARLANTRGKKAKRKAREKQLEEARRLASLQKRRELKAAGIDGRHRKRKRKGIDYNAEIPFEKRAPAGFYDTADEDRPADQVKFPTTIEELEGKRRADVEAHLRKQDVARNKIAQRQDAPAAILQANKLNDPEVVRKRSKLMLPPPQISDHELEEIAKMGYASDLLAENEELTEGSAATRALLANYSQTPRQGMTPMRTPQRTPAGKGDAIMMEAENLARLRDSQTPLLGGENPELHPSDFTGVTPRKKEIQTPNPMLTPSMTPGGAGLTPRIGLTPSRDGSSFSMTPKGTPFRDELHINEDMDMHESAKLERQRREEARRSLRSGLTGLPQPKNEYQIVAQPPPEESEEPEEKIEEDMSDRIAREKAEEEARQQALLKKRSKVLQRDLPRPPAASLAVIRNSLLSADGDKSSVVPPTPIEVADKMVREELLQLLEHDNAKYPLDDKAEKKKGAKNRTNRSASQVLAIDDFDENELQEADKMIKEEGKFLCVSMGHENKTLDDFVEAHNTCVNDLMYFPTRSAYELSSVAGNADKVAAFQEEMENVRKKMEEDEKKAEHMKAKYKTYTKGHERRAETVWTQIEATLKQAEIGGTEVECFKALKRQEEMAASFRKKNLQEEVIKQKETESKLQTRYGNMLAMVEKAEEIMVGFRAQALKKQEDVEDSHKLKEAKLATGEEEDIAIAMEASA
